Experiment [1] deals with T1, MlaF K47R, hexa-histidine tagged (subunit of MlaF_(K47R)EDB) (UniProt P63386).
T1 sequence: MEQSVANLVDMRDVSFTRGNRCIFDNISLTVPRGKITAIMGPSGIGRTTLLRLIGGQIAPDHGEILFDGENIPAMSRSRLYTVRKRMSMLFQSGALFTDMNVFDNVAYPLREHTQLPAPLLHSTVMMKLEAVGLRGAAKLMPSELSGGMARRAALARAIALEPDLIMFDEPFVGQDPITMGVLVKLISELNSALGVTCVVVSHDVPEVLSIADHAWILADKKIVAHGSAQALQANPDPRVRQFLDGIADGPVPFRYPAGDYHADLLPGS
In words: SEC. Background: Size exclusion chromatography separates by hydrodynamic size, large species first.

Experiment [2] has as its target T2, MlaF, hexa-histidine tagged (subunit of MlaFEDB) (UniProt P63386).
T2 sequence: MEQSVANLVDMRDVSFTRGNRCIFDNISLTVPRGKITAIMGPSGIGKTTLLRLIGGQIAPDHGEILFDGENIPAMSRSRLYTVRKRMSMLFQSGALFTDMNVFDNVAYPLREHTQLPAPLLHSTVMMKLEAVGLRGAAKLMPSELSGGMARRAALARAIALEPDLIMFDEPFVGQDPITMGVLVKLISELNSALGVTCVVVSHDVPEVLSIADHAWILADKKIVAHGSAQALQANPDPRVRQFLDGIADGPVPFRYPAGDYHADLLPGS
As to the kind of experiment: SEC.

No constants are given. Whether binding was seen depends on the method and setting. Some results given as binding are weak or reduced against the parent protein; the word gives no strength. Where a sequence is shown, tags or fusion partners need not be part of it.

B1: MlaE (subunit of MlaFEDB) (protein, UniProt P64606 1-260)
chain: MLLNALASLGHKGIKTLRTFGRAGLMLFNALVGKPEFRKHAPLLVRQLYNVGVLSMLIIVVSGVFIGMVLGLQGYLVLTTYSAETSLGMLVALSLLRELGPVVAALLFAGRAGSALTAEIGLMRATEQLSSMEMMAVDPLRRVISPRFWAGVISLPLLTVIFVAVGIWGGSLVGVSWKGIDSGFFWSAMQNAVDWRMDLVNCLIKSVVFAITVTWISLFNGYDAIPTSAGISRATTRTVVHSSLAVLGLDFVLTALMFGN
In the case of B1, the binding entry in experiment [1] and in experiment [2] was “binds” in each case.

B2: MlaD (subunit of MlaFEDB) (protein, UniProt P64604 1-183)
chain: MQTKKNEIWVGIFLLAALLAALFVCLKAANVTSIRTEPTYTLYATFDNIGGLKARSPVSIGGVVVGRVADITLDPKTYLPRVTLEIEQRYNHIPDTSSLSIRTSGLLGEQYLALNVGFEDPELGTAILKDGDTIQDTKSAMVLEDLIGQFLYGSKGDDNKNSGDAPAAAPGNNETTEPVGTTK
Regarding B2, the binding result in experiment [1] and in experiment [2] was “binds” throughout.

(Values after doi:10.1101/2020.06.06.138008.)
